Measurements published in PubChem BioAssay AID493014 (National Center for Advancing Translational Sciences (NCATS), 2011).
The campaign covered roughly 340,000 compounds. About 170 (0.05%) were called active. This list was built around the results that the source calls inconclusive (neither active nor inactive); the mix of calls is not that of the screen. Calls come from the whole dose curve; as a rule, active = well fitted inhibition curve with a large enough effect in the signal ratio, with a control signal flat (not every such curve was filed as active); inconclusive = small, poorly fitted or top-dose-only effect, or effect the other way, or a change in a side signal; inactive = flat fitted curve, though single readings scatter; the % refers to the signal ratio. Potencies of inconclusive entries are doubtful fits and often do not repeat.

Assay: qHTS Assay to Find Inhibitors of Chronic Active B-Cell Receptor Signaling;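 for activity change, negative = inhibition: plate controls were basal doxycycline-induced cells for no effect and cells given 10 µM MG132 for full effect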
Conditions: ABC-DLBCL IkBa-CBG/CBR reporter, luminescence ratio (green luciferase fused to IkBa over red control in TMD8 lymphoma cells), 4 h; activity change, negative = inhibition: at 46.1 µM (top of the series) unless noted
How it was run: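 Cell line TMD8 (human ABC DLBCL), stably expressing tet-inducible CBG68-IkBa fusion and CBR; IMDM/0.5% FBS; cpd up to 46 uM; dox induction, 4 h, 37C/5% CO2; dual luminescence; green/red ratio; MG132 control.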
Potency is the fitted concentration of half-maximal effect.

SMILES | activity change, negative = inhibition | Potency
O=C(Cc1nc2ccccc2[nH]1)c1ccc([N+](=O)[O-])cc1 | inconclusive: -11.6% | 
Cc1cc(=O)oc2cc(Nc3ccccc3)ccc12 |  | inconclusive: 13 µM [falling, partial curve]
CC1=C(C(=O)OCc2ccccc2)C(c2ccsc2)NC(=O)N1C (configuration not stated) | inconclusive: 0.185% | 
COc1ccc(-c2nn(-c3ccccc3)cc2/C=N/Nc2ccc(S(N)(=O)=O)cc2[N+](=O)[O-])cc1OC | inconclusive: -1.29% | 
O=C(NCCCO)c1c(O)c2cccc3c2n(c1=O)CCC3 | inactive | 
CNC(=O)CCC(=O)Nc1ccc(C(=O)OC)cc1 | inactive | 
COc1ccccc1N1C(N)=NC(N)=NC12CCCCC2 | inconclusive: 8.24% | 
CC1Oc2ccccc2N(CC(=O)NC2CCCCC2)C1=O (configuration not stated) | inconclusive: -14.2% | 
COC(=O)NCC(c1ccc2c(c1)OCO2)N1CCN(c2ccc(OC)cc2)CC1 (configuration not stated) |  | inconclusive: 14.1 µM [falling, partial curve, poor fit]
Cc1ccc(C(=O)Nc2nnc(CC(=O)N/N=C/c3ccncc3)s2)cc1 | inactive | 
COc1ccc(C/C(C)=N/NC(=O)C2COc3ccccc3O2)cc1 (configuration not stated) | inconclusive: -21.5% | 
Cc1ccc(/C=N/NC(=O)c2ccccn2)s1 |  | inconclusive: 3.66 µM [falling, single point]
CC(=O)c1ccc(N(C(=O)CNC(=O)c2ccco2)C(C(=O)NC2CCCC2)c2cccnc2)cc1 (configuration not stated) | inactive | 
O=C(C[n+]1cc(-c2ccc(F)cc2)n2c1CCC2)Nc1nc(-c2ccccc2)cs1 | inactive | 
COC(=O)C1=C(C)NC(=O)NC1c1cc(Cl)ccc1OC (configuration not stated) | inconclusive: 1.01% | 
Cc1oc(CSCCSCc2cc(C(=O)O)c(C)o2)cc1C(=O)O | inconclusive: 6.42% | 
CCOc1ccc(NC(=O)c2cc3ccccc3cc2OC)cc1 |  | inconclusive: 35.5 µM [falling, single point]
O=S(=O)(/N=C(/Nc1cccnc1)c1ccccc1)c1ccc(F)cc1F | inconclusive: -5.44% | 
CCn1c(SC)nc2c(c1=O)SC(C)C2 (configuration not stated) | inconclusive: 11.5% | 
O=C(Cn1ncc2c(=O)oc3ccccc3c21)N(Cc1ccco1)C1CCCCC1 | inconclusive: -0.72% | 
O=C(COC(=O)c1cccs1)c1ccc2c(c1)OCCO2 |  | inconclusive: 29.1 µM [falling, single point]

Single records, from the list above:
CC1Oc2ccccc2N(CC(=O)NC2CCCCC2)C1=O (configuration not stated) is listed with activity change, negative = inhibition: inconclusive: -14.2%
Cc1oc(CSCCSCc2cc(C(=O)O)c(C)o2)cc1C(=O)O is listed with activity change, negative = inhibition: inconclusive: 6.42%
CNC(=O)CCC(=O)Nc1ccc(C(=O)OC)cc1 is listed with activity change, negative = inhibition: inactive
COc1ccc(-c2nn(-c3ccccc3)cc2/C=N/Nc2ccc(S(N)(=O)=O)cc2[N+](=O)[O-])cc1OC is listed with activity change, negative = inhibition: inconclusive: -1.29%

Later entries.

SMILES | activity change, negative = inhibition | Potency
O=c1c(Cl)c(Cl)cnn1-c1ccccc1 | inconclusive: 14.7% | 
CCCc1c(O)c2ccccc2[nH]c1=O | inactive | 
C[C@H](Cc1ccccc1)Nc1ncnc2c1ncn2[C@@H]1O[C@H](CO)[C@@H](O)[C@H]1O |  | inconclusive: 0.58 µM [falling, full curve]
COc1ccc(C)cc1NC(=O)C(Sc1nnc(-c2cccs2)o1)c1ccccc1 (configuration not stated) | inconclusive: -1.52% | 
COc1ccccc1NCCC(=O)OCC(=O)NC1CCCCCC1 | inactive | 
O=C(OCc1ccccc1F)c1ccc2c(c1)OCCO2 | inconclusive: 25.4% | 
O=C(NNc1ccc(-c2csnn2)cc1)c1cc(Cl)cc(Cl)c1 | inactive | 
CCn1cnc2c1c(=O)n(CC(=O)Nc1cc(C)on1)c(=O)n2Cc1ccccc1 | inconclusive: 8.13% | 
O=C(Nc1cccc(O)c1)c1noc2c1CCc1ccccc1-2 |  | inconclusive: 1.64 µM [falling, partial curve, poor fit]
CC1CCCCC1NC(=O)C1CCN(c2c3c(nc4ncnn24)CCC3)CC1 (configuration not stated) | inactive | 
Cc1ccc2nc(SCC(=O)Nc3ccc(F)cc3F)[nH]c2c1 |  | inconclusive: 35.5 µM [falling, single point]
CCc1ccc(NC(=O)c2cnn(-c3ccccc3)c2C)cc1 | inconclusive: -0.85% | 
Cc1nc(C)c(C(=O)N/N=C/c2cn(C)c3ccccc23)s1 |  | inconclusive: 20.6 µM [falling, partial curve]
COC(=O)C1=CNC=C(C(=O)OC)C1c1ccccc1Cl |  | inconclusive: 6.51 µM [falling, single point]
COc1cc(-c2c(-c3cc(OC)c(OC)c(OC)c3)noc2C)ccc1F |  | inconclusive: 0.398 µM [falling, full curve, poor fit]
COc1cc(/C=N\NC(=O)C2COc3ccccc3O2)cc(OC)c1O (configuration not stated) | inactive | 
CC(=O)c1cc2c(cc1NC(=O)CN1CCC(Cc3ccccc3)CC1)OCO2 | inconclusive: -2.32% | 
CCCCCCC(=O)c1c(C)[nH]c(C(=O)OCC)c1C | inconclusive: 3.82% | 
CCN(CC)CCCN(Cc1cc2cc3c(cc2[nH]c1=O)OCO3)C(=S)Nc1ccc(OC)cc1 | inactive | 
CCN(C(=O)COC(=O)c1cccnc1)c1cccc2ccccc12 | inactive | 
O=C(COc1ccc2ccccc2c1)Nc1nccs1 |  | inconclusive: 17.8 µM [falling, partial curve]

SMILES | activity change, negative = inhibition | Potency
CCOC(=O)c1c(S(=O)(=O)N2CCCC(C(=O)Nc3ccccn3)C2)c(C)n(C)c1C (configuration not stated) | inconclusive: 10.5% | 
COC(=O)c1ccc2c(=O)n(Cc3ccc4c(c3)OCO4)c(=S)[nH]c2c1 | inactive | 
Cc1c(Cl)cccc1NC(=O)CC1SCCNC1=O (configuration not stated) | inconclusive: 0.777% | 
Cn1c(SCC(=O)Nc2ccc(N3CCOCC3)cc2)nnc1-c1ccccc1 | inactive | 
CCOc1ccccc1NC(=O)c1c(NCc2cccs2)sc2c1CCC(C)C2 (configuration not stated) | inconclusive: -23.1% | 
CCC(CC)C(=O)Nc1c2c(nn1-c1ccc(C)cc1)CS(=O)(=O)C2 | inconclusive: 0.714% | 
COC(=O)c1cc(S(=O)(=O)C(C)C)c(S(C)=O)s1 (configuration not stated) | inconclusive: -0.369% | 
CCOC(=O)c1c(C)[nH]c(C(=O)CSc2ccc(Cl)cc2)c1C | inconclusive: 4.95% | 
COc1cc(N=CC2=C(O)c3ccccc3C2=O)cc(OC)c1 |  | inconclusive: 18.4 µM [falling, partial curve]
CCCCNC(=O)c1onc(CSc2ccccc2F)c1C(=O)O | inconclusive: -15.1% | 
COc1cc(S(=O)(=O)Nc2ccc(C)cc2)ccc1NC(=O)c1ccncc1 | inconclusive: -23% | 
COc1ccc(S(=O)(=O)N2CCc3ccccc3C2)cc1OC |  | inconclusive: 22.4 µM [falling, single point]
O=C(O)CCN1C(=O)c2ccccc2C1=O | inconclusive: 8.87% | 
Cc1ccc(S(=O)(=O)Nc2ccccc2C(O)c2ccccc2)cc1 (configuration not stated) | inconclusive: 3.77% | 
COc1ccccc1C(=O)Nc1nc(-c2cccs2)c(NC(C)=O)s1 | inconclusive: -0.411% | 
CCN(CC(=O)Nc1ccccc1OC)C(=O)c1ccc2[nH]c3c(c2c1)CC(C)CC3 (configuration not stated) | inconclusive: 23% | 
CCN1CCS/C1=C/C=C/C1=[N+](CC)CCS1 | inconclusive: -15.7% | 
Clc1ccc(OCCn2cnc3ccccc32)cc1 | inactive | 
CCN(C(=O)c1cc2c(C)nc3ccccc3c2o1)c1cc(Cl)ccc1OC | inconclusive: -5.59% | 
CC(C)=NOc1nc(N(C)C)nc(N(C)C)n1 | inconclusive: 3.64% | 
Cc1cc(N/N=C/c2ccccc2O)nc(N2CCOCC2)n1 |  | inconclusive: 35.5 µM [falling, single point]

SMILES | activity change, negative = inhibition | Potency
CC1CN(S(=O)(=O)c2ccc(NC(=O)c3cc(-c4ccccc4O)n[nH]3)cc2)CC(C)O1 (configuration not stated) |  | inconclusive: 22.4 µM [falling, single point]
COc1ccc(-n2c(N)c(C(=O)Nc3c(C)n(C)n(-c4ccccc4)c3=O)c3nc4ccccc4nc32)cc1 | inconclusive: 14.5% | 
CCCc1cc(C(=O)Nc2cccnc2)no1 |  | inconclusive: 22.4 µM [falling, single point]
CC(=O)c1ccc(N2CCN(C(=O)C3(S(=O)(=O)c4ccc(Cl)cc4)CC3)CC2)cc1 | inconclusive: -0.776% | 
Fc1cccc(Cn2cc(C(=S)N3CCOCC3)c3ccccc32)c1 | inconclusive: -22.9% | 
S=C1SCN(Cc2cccnc2)CN1Cc1cccnc1 |  | inconclusive: 3.16 µM [falling, full curve]
COc1ccc(C2C(C(=O)Nc3ccc(F)cc3)=C(C)Nc3nc(CCCO)nn32)cc1 (configuration not stated) |  | inconclusive: 12.6 µM [falling, partial curve, poor fit]
Cc1cc(C)n(-c2nc3ccccc3c(=O)n2OCc2ccc(F)cc2)n1 | inconclusive: -9.66% | 
CN(C)/C=C1\SC(=S)N(c2ccc(Br)cc2)C1=O | inconclusive: 14.1% | 
O=C(Nc1cccc(F)c1)C1CCN(C(=O)Cc2ccccc2)CC1 | inconclusive: -0.317% | 
O=C(Nc1ccccc1)c1nnn(Cc2ccccc2)c1NC(=O)C(F)(F)F |  | inconclusive: 35.5 µM [falling, single point]
COC(=O)c1cccc(NC(=O)NC(=O)c2ccccc2Cl)c1 |  | inconclusive: 3.98 µM [falling, full curve]
COc1ccc(Cl)cc1NC(=O)C/C(C)=N/NC(=O)c1ccccc1[N+](=O)[O-] |  | inconclusive: 17.8 µM [falling, single point]
CCN(CCCNC(=O)c1c(C)cc(=O)oc1C)c1ccccc1 | inconclusive: -1.59% | 
O=C(Cc1ccccc1F)Nc1ccc(Cl)nc1 |  | inconclusive: 2.91 µM [rising, full curve, poor fit]
CC1Cc2ccccc2N1C(=O)CSc1nnc(-c2ccccc2)c(-c2ccccc2)n1 (configuration not stated) | inconclusive: 15.9% | 
Cc1cccc(NC(=S)NNC(=O)c2ccccc2Br)c1 | inconclusive: -21.6% | 
CC(C)OC(=O)CSc1nnc(Cc2ccccc2)n1Cc1ccco1 | inconclusive: -16.2% | 
Cc1ccc(NC(=O)Cn2cnc3sc(C(=O)NCCN(C)C)c(C)c3c2=O)cc1Cl |  | inconclusive: 29.1 µM [falling, single point]
